Data as given in PubChem BioAssay AID504793 (Drosophila RNAi Screening Center, 2011).
The deposit covers about 23,000 reagents; shown is an unselected part of those with a known target gene and a result. Over the whole deposit, 62 (0.27%) are marked active. 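Calls come from follow-up tests whose scores are not deposited, so confirmed genes may have low counts here; counts are not normalised per plate.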 The raw values are shown without normalisation. A plus sign joins genes that one reagent is predicted to hit.

Assay: 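Whole-genome screen for parts of the DNA damage checkpoint at G2/M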 (primary screen)
Cell system: Drosophila S2R+ cells
Reagent: long dsRNA against Drosophila genes, about 0.25 µg dsRNA per well
Timing: 4 days of dsRNA, then 4 hours of drug before read-out
Treatment: doxorubicin 0.5 µM for 4 hours to cause double-strand breaks, in cells also given a low, harmless dose of dsRNA against nbs to sensitise the assay
Detection: 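Mitotic index as the number of phospho-histone H3-positive cells in each well following doxorubicin, given as raw counts without normalisation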
Direction: mitotic cells: higher = more cells in mitosis, weaker G2 arrest
Call rule: 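a call needs confirmation in secondary tests, with other dsRNAs and a check of mitotic timing without damage, not just a high primary count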
Calls: active = confirmed in follow-up tests; inactive = not confirmed

target | amplicon | mitotic cells, replicate 1 | call
CG17486 (GeneID 3355138) | DRSC07752 | 4 | inactive
CG44325 (GeneID 31831) | DRSC18423 | 13 | inactive
CG15443 (GeneID 33656) | DRSC00455 | – | inactive
CG17807 (GeneID 37585) | DRSC04296 | 4 | inactive
CG17807 (GeneID 37585) | DRSC26388 | 6 | inactive
MRP (GeneID 34686) | DRSC02942 | 6 | inactive
CG16700 (GeneID 32694) | DRSC19755 | 7 | inactive
Mst84Dd (GeneID 40886) | DRSC12600 | 5 | inactive
Mst84Dd (GeneID 40886) | DRSC25596 | 7 | inactive
CG11125 (GeneID 35669) | DRSC06042 | 3 | inactive
CG13928 (GeneID 38195) | DRSC08397 | 3 | inactive
CG8117 (GeneID 32499) | DRSC20082 | 10 | inactive
CG8117 (GeneID 32499) | DRSC27713 | 5 | inactive
CG5535 (GeneID 39990) | DRSC10514 | 10 | inactive
CG5535 (GeneID 39990) | DRSC29215 | 9 | inactive
CG8159 (GeneID 41040) | DRSC16392 | 4 | inactive
CG8159 (GeneID 41040) | DRSC27425 | 6 | inactive
Atox1 (GeneID 326216) | DRSC22416 | 13 | inactive
Lcp65Ac (GeneID 38708) | DRSC11210 | 3 | inactive
Lcp65Ac (GeneID 38708) | DRSC23931 | 3 | inactive
Lcp65APsi (GeneID 3771993) | DRSC08795 | 4 | inactive
Lcp65APsi (GeneID 3771993) | DRSC10342 | 4 | inactive
CG42521 (GeneID 8674012) | DRSC10154 | 4 | inactive
Spindly (GeneID 33578) | DRSC00430 | 292 | inactive
Ipo9 (GeneID 41367) | DRSC16813 | 11 | inactive
CG13113 (GeneID 34271) | DRSC02211 | 8 | inactive
Skp2 + CG1103 | DRSC12160 | 7 | inactive
Skp2 + CG1103 | DRSC22356 | 7 | inactive
Ziz (GeneID 34030) | DRSC02506 | 4 | inactive
Ziz (GeneID 34030) | DRSC02976 | 6 | inactive
kirre (GeneID 31292) | DRSC18785 | 14 | inactive
kirre (GeneID 31292) | DRSC24733 | 2 | inactive
rdgA (GeneID 31826) | DRSC17863 | 5 | inactive
rdgA (GeneID 31826) | DRSC18036 | 9 | inactive
rdgA (GeneID 31826) | DRSC18827 | 13 | inactive
rdgA (GeneID 31826) | DRSC25192 | 10 | inactive
rdgA (GeneID 31826) | DRSC27192 | 3 | inactive
rdgA (GeneID 31826) | DRSC39133 | 12 | inactive

Looked up above.
Lcp65APsi (GeneID 3771993) [DRSC10342], call = inactive
rdgA (GeneID 31826) [DRSC18036], mitotic cells, replicate 1 = 9
Under “mitotic cells, replicate 1”, CG17807 (GeneID 37585) [DRSC04296] reads 4
CG13113 (GeneID 34271) [DRSC02211], mitotic cells, replicate 1 → 8

The list goes on.
target | amplicon | mitotic cells, replicate 1 | call
CG30428 (GeneID 246608) | DRSC04041 | 5 | inactive
CG30428 (GeneID 246608) | DRSC28228 | 2 | inactive
CG31782 (retired record) (GeneID 318938) | DRSC01554 | 1 | inactive
CG31782 (retired record) (GeneID 318938) | DRSC01556 | 3 | inactive
RhoGAP92B (GeneID 42371) | DRSC14507 | 5 | inactive
RhoGAP92B (GeneID 42371) | DRSC15637 | 8 | inactive
Nf-YC (GeneID 31622) | DRSC23106 | 8 | inactive
Ir92a (GeneID 42415) | DRSC15111 | 4 | inactive
APP-BP1 (GeneID 39244) | DRSC10920 | 3 | inactive
Pi4KIIalpha (GeneID 40670) | DRSC12322 | 5 | inactive
Pi4KIIalpha (GeneID 40670) | DRSC12323 | 2 | inactive
Pi4KIIalpha (GeneID 40670) | DRSC29095 | 1 | inactive
kl-3 (retired record) (GeneID 5740653) | DRSC20730 | 4 | inactive
kl-3 (retired record) (GeneID 5740653) | DRSC20891 | 8 | inactive
kl-3 (retired record) (GeneID 5740653) | DRSC20934 | 17 | inactive
CG42505 + CG42504 + CG31358 | DRSC15235 | 6 | inactive
CG42505 + CG42504 + CG31358 | DRSC15308 | 5 | inactive
CG42505 + CG42504 + CG31358 | DRSC15309 | 5 | inactive
CG1951 (GeneID 43423) | DRSC15403 | 6 | inactive
CG4291 (GeneID 33264) | DRSC00650 | 5 | inactive
CG4291 (GeneID 33264) | DRSC28410 | 8 | inactive
CG10877 (GeneID 42432) | DRSC14274 | 8 | inactive
CG13096 (GeneID 34183) | DRSC02198 | 4 | inactive
CG9109 (GeneID 33844) | DRSC03139 | 3 | inactive
CG9109 (GeneID 33844) | DRSC26398 | 8 | inactive
MED1 (GeneID 40403) | DRSC11808 | 9 | inactive
CG14110 (GeneID 39500) | DRSC10113 | 9 | inactive
obst-A (GeneID 33022) | DRSC20543 | 9 | inactive
CG15742 (GeneID 32276) | DRSC19708 | 8 | inactive
CG15742 (GeneID 32276) | DRSC28195 | 7 | inactive
mamo (GeneID 32353) | DRSC19370 | 15 | inactive
mamo (GeneID 32353) | DRSC29723 | 7 | inactive
DIP-kappa (GeneID 318958) | DRSC01336 | 3 | inactive
DIP-kappa (GeneID 318958) | DRSC01337 | 5 | inactive
ppk22 (GeneID 318593) | DRSC22093 | 11 | inactive
l(2)gd1 (GeneID 34543) | DRSC02773 | 3 | inactive
l(2)gd1 (GeneID 34543) | DRSC29178 | 11 | inactive
